For two compounds, EC (150% of control) and melting point results are on record in patent publication US9464049B2, “Indole-carboxamides” (Hoffmann-La Roche Inc., priority 2013, dated 2016).

Data set [1] has as its system human embryonic stem cell derived neural stem cells (NSCs). Kind of data set: Neural stem cell proliferation assay (neurogenesis assay, ATP levels by CellTiterGlo). Particulars: 96 h, compound concentration at which 150% activity of control (100%) is reached, NSC proliferation by ATP (CellTiterGlo) after 4 days incubation, dose response 8 μM to 8 nM. In kind it is cell-based. The protocol:
Neural Stem Cell Proliferation Assay
Neurogenic properties of small molecules are determined based on the proliferation of human embryonic stem cell derived neural stem cells (NSCs) which were derived via a dual smad inhibition as previously described (Chambers, S. M., et al., Highly efficient neural conversion of human ES and iPS cells by dual inhibition of SMAD signaling, Nature biotechnology, 2009. 27(3): p. 275-80.)
Compounds respond is measured by the increase in cells based on ATP levels (Promega:CellTiterGlo®) after an incubation period of 4 days.
NSCs are thawed and expanded over 3 passages. On the 14th day, NSCs are seeded in Polyornithin/Laminin coated 384 well plates at a cell density of 21,000 cells/cm^2 in a media volume of 38 μl.
4 hours after cell seeding, compound solutions are added at a volume of 2 μl. […]
After 4 days incubation at 37° C., 5% CO2, the amount of ATP per well is quantified. […] ATP is quantified by using the Promega CellTiterGlo® kit. […] The luminescence signal is proportional to the ATP content.
The value of negative (neutral) control is determined for each assay plate by taking the average of 16 negative control wells. The neurogenic compound response is calculated for each compound as (compound/Negative Control)*100.
The values of EC150 from the dose response curve are determined for each test compound. […]
On the technique in general: ATP-based viability assays read luminescence as a measure of living cells.

Usually melting point stands for the temperature of the solid-liquid transition. In turn, `Cc1cc(-c2cc(C#N)cc3cc(C(N)=O)n(C)c23)ccc1F` [Example 65, 5-Cyano-7-(4-fluoro-3-methylphenyl)-1-methylindole-2-carboxamide] registered a melting point of 220 °C. The EC (150% of control) in data set [1] is 0.18 µM.
`Cn1c(C(N)=O)cc2cc(C#N)cc(-c3ccnc(Cl)c3)c21` [Example 69, 7-(2-Chloropyridin-4-yl)-5-cyano-1-methylindole-2-carboxamide]: the melting point was 209 °C. The EC (150% of control) in data set [1] was determined as 0.13 µM.
